According to patent publication US6054163A, “Bacteriocin piscicolin 126” (The University of Melbourne, priority 1995, dated 2000):
Not every detail of the peptide structures is certain; ends, links or a residue may be inferred. Bridges are numbered along the chain shown (N, C = ends). Where no end group is shown, it is not given here.

Key:
[1] = test system: Listeria monocytogenes 4A; test: Enzyme inactivation of piscicolin 126; residual activity by bioassay; format: cell-based; details: 37° C., 2 h
[2] = test system: Listeria monocytogenes 4A; test: Viable count in challenged Ricotta cheese; details: approximately 2,048 AU g^-1, 10° C.
[3] = test system: Lactococcus lactis subsp. lactis var diacetylactis; test: Minimum Inhibitory Concentration against cheese starter bacteria; format: cell-based
MLCC M126 [4] = test: Cheese starter culture activity (rate of pH decrease) in whole milk; format: cell-based, Lactococcus lactis subsp. cremoris; details: 2,048 AU ml^-1, sterile whole milk, 30° C.
MLCC M126 [5] = test: Viable count in whole milk; format: cell-based, Lactococcus lactis subsp. cremoris; details: 2,048 AU ml^-1, whole milk, 30° C., M17 Agar
AFRICC 3715 [6] = test: Cheese starter culture activity (rate of pH decrease) in whole milk; format: cell-based, Streptococcus thermophilus; details: 2,048 AU ml^-1, sterile whole milk, 37° C.
[7] = test system: Lactococcus lactis subsp. cremoris; test: Minimum Inhibitory Concentration against cheese starter bacteria; format: cell-based
[8] = test system: Streptococcus thermophilus; test: as above; format: cell-based
[9] = test system: Listeria monocytogenes 4A AFRICC 2310; test: Viable count in whole milk; format: cell-based; details: 2,048 AU ml^-1, whole milk; for Viable count: 30° C.
MLCC M276 = test: Cheese starter culture activity (rate of pH decrease) in whole milk; format: cell-based, Lactococcus lactis subsp. lactis; details: 2,048 AU ml^-1, sterile whole milk, 30° C.
cheese starter bacteria = test: Sensitivity of cheese starter bacteria in plate bioassays (summary); format: cell-based
Leuconostoc sp. = test: Minimum Inhibitory Concentration against cheese starter bacteria; format: cell-based
AFRICC 3715 [10] = test: Viable count in whole milk; format: cell-based, Streptococcus thermophilus; details: 2,048 AU ml^-1, whole milk, 37° C., M17 Agar
[11] = test system: Leuconostoc mesentroides var. cremoris; test: Minimum Inhibitory Concentration against cheese starter bacteria; format: cell-based; details: AFRICC 2201
cheese starter cultures = test: Viable counts of cheese starter cultures in whole milk (summary); format: cell-based; details: 2,048 AU ml^-1, whole milk
Leuconostoc dextranicus = test: Minimum Inhibitory Concentration against cheese starter bacteria; format: cell-based; details: AFRICC 2208
[12] = test system: Lactococcus lactis subsp. lactis; test: as above; format: cell-based
[13] = test system: Listeria monocytogenes 4A; test: Bioassay of bacteriocin activity (Arbitrary Units); details: preparation concentrated by ammonium sulphate precipitation
cheese starter culture = test: Starter activity in whole milk (summary); format: cell-based; details: 2,048 AU ml^-1, whole milk
[14] = Enzyme Treatment: Protease XXIII
[15] = Enzyme Treatment: α-Chymotrypsin
[16] = Enzyme Treatment: β-Chymotrypsin

## KYYGNGVSCNKNGCTVDWSKAIGIIGNNAAANLTTGGAAGWNKG (disulfide 9-14) [piscicolin 126]
[1]; Enzyme Treatment: Catalase
  Activity % (residual bacteriocin activity as % of original): 100%
  Activity AU ml^-1: 12800 AU ml^-1
[1]; Enzyme Treatment: Control
  Activity % (residual bacteriocin activity as % of original): 100%
  Activity AU ml^-1: 12800 AU ml^-1
[1]; Enzyme Treatment: Lipase
  Activity % (residual bacteriocin activity as % of original): 100%
  Activity AU ml^-1: 12800 AU ml^-1
[1]; Enzyme Treatment: Lysozyme
  Activity % (residual bacteriocin activity as % of original): 100%
  Activity AU ml^-1: 12800 AU ml^-1
[1]; Enzyme Treatment: Pepsin
  Activity % (residual bacteriocin activity as % of original): 100%
  Activity AU ml^-1: 12800 AU ml^-1
[1]; Enzyme Treatment: Protease I
  Activity % (residual bacteriocin activity as % of original): 0%
  Activity AU ml^-1: 0 AU ml^-1
[1]; Enzyme Treatment: Protease XIV
  Activity % (residual bacteriocin activity as % of original): 3%
  Activity AU ml^-1: 400 AU ml^-1
[1]; [14]
  Activity % (residual bacteriocin activity as % of original): 0%
  Activity AU ml^-1: 0 AU ml^-1
[1]; Enzyme Treatment: Trypsin
  Activity % (residual bacteriocin activity as % of original): 6%
  Activity AU ml^-1: 800 AU ml^-1
[1]; [15]
  Activity % (residual bacteriocin activity as % of original): 0%
  Activity AU ml^-1: 0 AU ml^-1
[1]; [16]
  Activity % (residual bacteriocin activity as % of original): 0%
  Activity AU ml^-1: 0 AU ml^-1
[2]
  time for which growth of Listeria monocytogenes is inhibited: up to 7 days
[3]; MLCC DRC
  MIC: > 204,800 AU ml^-1
[3]; MLCC FDLD3
  MIC: > 204,800 AU ml^-1
[3]; MLCC HBD1
  MIC: > 204,800 AU ml^-1
[3]; MLCC HDD1
  MIC: > 204,800 AU ml^-1
MLCC M126 [4]; 0 h
  pH: 6.04
MLCC M126 [4]; 2 h
  pH: 5.76
MLCC M126 [4]; 4 h
  pH: 5.27
MLCC M126 [4]; 6 h
  pH: 4.64
MLCC M126 [4]; 8.5 h
  pH: 4.30
MLCC M126 [5]; 0 h
  Viable count: 6.63 log cfu ml^-1
MLCC M126 [5]; 6 h
  Viable count: 8.52 log cfu ml^-1
AFRICC 3715 [6]; 0 h
  pH: 5.87
AFRICC 3715 [6]; 2 h
  pH: 5.76
AFRICC 3715 [6]; 4 h
  pH: 5.44
AFRICC 3715 [6]; 6 h
  pH: 5.18
AFRICC 3715 [6]; 8.5 h
  pH: 5.01
[7]; MLCC M124
  MIC: > 204,800 AU ml^-1
[7]; MLCC M126
  MIC: 51,200 AU ml^-1
[7]; MLCC M145
  MIC: > 204,800 AU ml^-1
[7]; MLCC M149
  MIC: > 204,800 AU ml^-1
[7]; MLCC M193
  MIC: > 204,800 AU ml^-1
[7]; MLCC M379
  MIC: > 204,800 AU ml^-1
[8]; AFRICC 3715, TS1
  MIC: 2,048 AU ml^-1
[8]; AFRICC 3716, TS2
  MIC: 3,200 AU ml^-1
[8]; MLCC ST3
  MIC: > 204,800 AU ml^-1
[8]; MLCC ST41
  MIC: > 204,800 AU ml^-1
[8]; MLCC ST42
  MIC: > 204,800 AU ml^-1
[9]
  effect on viable count of Listeria monocytogenes: substantially reduced
[9]; inoculum 10^4 cfu ml^-1, 0 h
  Viable count: < 1.0 log cfu ml^-1
[9]; inoculum 10^4 cfu ml^-1, 6 h
  Viable count: < 1.0 log cfu ml^-1
[9]; inoculum 10^6 cfu ml^-1, 0 h
  Viable count: < 1.0 log cfu ml^-1
[9]; inoculum 10^6 cfu ml^-1, 6 h
  Viable count: 2.94 log cfu ml^-1
MLCC M276; 0 h
  pH: 5.87
MLCC M276; 2 h
  pH: 5.66
MLCC M276; 4 h
  pH: 5.12
MLCC M276; 6 h
  pH: 4.50
MLCC M276; 8.5 h
  pH: 4.28
Cheese starter bacteria
  sensitivity of cheese starter bacteria to piscicolin 126: generally not sensitive to less than 2,048 AU ml^-1
Leuconostoc sp.; MLCC FLIL1
  MIC: > 204,800 AU ml^-1
Leuconostoc sp.; MLCC HLD1
  MIC: > 204,800 AU ml^-1
AFRICC 3715 [10]; 0 h
  Viable count: 7.18 log cfu ml^-1
AFRICC 3715 [10]; 6 h
  Viable count: 8.00 log cfu ml^-1
[11]
  MIC: 102,400 AU ml^-1
Cheese starter cultures
  effect on viable counts of cheese starter cultures: unaffected
Leuconostoc dextranicus
  MIC: 102,400 AU ml^-1
[12]; MLCC M229
  MIC: > 204,800 AU ml^-1
[12]; MLCC M238
  MIC: > 204,800 AU ml^-1
[12]; MLCC M262
  MIC: > 204,800 AU ml^-1
[12]; MLCC M276
  MIC: > 204,800 AU ml^-1
[12]; MLCC M392
  MIC: > 204,800 AU ml^-1
[12]; MLCC M474
  MIC: > 204,800 AU ml^-1
[13]
  amount of bacteriocin activity in the concentrated preparation: 204,800 AU ml^-1
Cheese starter culture
  effect on starter activity: does not inhibit starter activity
